Earlier results in patent publication US20170056327A1 (The Methodist Hospital, priority 2015, published 2017).
At least one compound was matched to its structure with a doubt left.

System: melanoma
Settings: melanoma therapy, literature (Flaherty et al., 2012; McArthur et al., 2014); cited from earlier work

In the case of `CC(=O)Nc1cccc(-n2c(=O)n(C3CC3)c(=O)c3c(Nc4ccc(I)cc4F)n(C)c(=O)c(C)c32)c1` [trametinib], the response rate is listed as 22%.
